This note sets out measurements from article PMC7819943, “Rice protein-binding microarrays: a tool to detect cis-acting elements near promoter regions in rice”.

The chains behind the UniProt entries cited, without tags or fusion partners.
UniProt Q0JBA9, entry or part of it: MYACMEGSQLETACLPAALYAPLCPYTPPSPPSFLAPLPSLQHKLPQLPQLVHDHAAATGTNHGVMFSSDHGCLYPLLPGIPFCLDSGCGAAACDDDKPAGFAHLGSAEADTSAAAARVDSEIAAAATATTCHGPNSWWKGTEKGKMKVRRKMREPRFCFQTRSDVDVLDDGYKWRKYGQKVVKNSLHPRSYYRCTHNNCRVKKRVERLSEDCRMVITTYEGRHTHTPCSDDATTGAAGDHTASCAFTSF

Some of the results follow.

The target of this test is OsWRKY34 (Oryza sativa, UniProt Q0JBA9 1-250). The test can be described thus: protein-binding microarray (RPBM); PBS, 2% BSA, 51.3 ng/ul salmon testes DNA, 50 uM zinc acetate, 200 nM TF, 25 C, 1 h; high values mean tight binding. To be noted: protein: recombinant; tags: N-terminal polyhistidine and DsRed monomer fusion (pET32a); label: CyDye5-dUTP incorporated in the synthesized complementary strand; 3' TTTTT single-stranded linker to array surface; dsDNA, one strand shown. The procedure, abridged:
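A custom Agilent array was converted to double-stranded form by primer extension with Cy5-dUTP and blocked with 2% BSA. Protein at 200 nM in PBS with 2% BSA, salmon testes DNA and 50 µM zinc acetate was applied for 1 h at 25 °C, followed by washing. The proteins were polyhistidine–DsRed N-terminal fusions of transcription factors, expressed in E. coli BL21-CodonPlus and Ni–NTA-purified. The binding signal is per-feature fluorescence intensity (arbitrary units) from an Axon 4000B scanner.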
As for “ACCCTACCCTTGCTGCGCTGCCCATTTCCGTCGCCGCTGTCGGAGTCACCTAGTGCAG”, the binding signal was 9610 fluorescence intensity (a.u.).

Regarding “TAGTGGTGGTGGTGGTGGCTATGGAGGAGGAAGGTATGAGCGGAGTCACCTAGTGCAG”, the binding signal is 12100 fluorescence intensity (a.u.).

Take “GCCGGCAAAGTCGCCGTTCCACGTTCCCGCCGCCGGCGCCCGGAGTCACCTAGTGCAG”: the binding signal was 8520 fluorescence intensity (a.u.).

With “GCACTACACTCTCCTCCACTCGCACCCACACATCGCCTTCCGGAGTCACCTAGTGCAG”, the binding signal is 9050 fluorescence intensity (a.u.).

Regarding “TTCTCTTCTAATGTTACTTATTTTTTAATTCCGAATTTTACGGAGTCACCTAGTGCAG”, the binding signal is 8040 fluorescence intensity (a.u.).

Turning to “ACAAACTTCTAACTTTTTCGTCACATCATTCCAATTTCAACGGAGTCACCTAGTGCAG”, the binding signal is 10500 fluorescence intensity (a.u.).

Turning to “ACAAATGGTCAAACGTTGGTCGAAAAGTCAACGGCGTCATCGGAGTCACCTAGTGCAG”, the binding signal is 13700 fluorescence intensity (a.u.).

For “CAGTCGTGGTTCAATCAAACGGTTATTCATATGTTTTTCACGGAGTCACCTAGTGCAG”, the binding signal was 10800 fluorescence intensity (a.u.).

In the case of “CTTGCTCCTACACTCGCTACTGCTGTCCTTCCCACCATTGCGGAGTCACCTAGTGCAG”, the binding signal was 8030 fluorescence intensity (a.u.).

Take “AGGCCCGGTCAAAGTTTGACTATTTTGCCCACAACTCAGACGGAGTCACCTAGTGCAG”: the binding signal is 12600 fluorescence intensity (a.u.).

In the case of “GCATTACGATGGTTCTTTTCTACCTATAGACAACTTTTTTCGGAGTCACCTAGTGCAG”, the binding signal is 9360 fluorescence intensity (a.u.).

On to “CCGCTTCTTTTCTCGCTTCTGCTCCCCGCCGCCACCGCCTCGGAGTCACCTAGTGCAG”, for which the binding signal is 11700 fluorescence intensity (a.u.).

For the sequence “TACTGTTGTATGCTGTTCCCTTGCCGTCTCTGAACTTTCCCGGAGTCACCTAGTGCAG”, the binding signal is 15400 fluorescence intensity (a.u.).

As for “TCGTTTGATGCGATTTCGGCGGCGATCACCACCACCACCACGGAGTCACCTAGTGCAG”, the binding signal is 8160 fluorescence intensity (a.u.).

With “TATCTTTGAGGAGGTTTAGTACTTCTTTTGGGCTTTTCTTCGGAGTCACCTAGTGCAG”, the binding signal is 10600 fluorescence intensity (a.u.).

In the case of “CACCACAGCAAAGGAACACACTTTTTTTCTCTTCTTCTTTCGGAGTCACCTAGTGCAG”, the binding signal is 9720 fluorescence intensity (a.u.).

“ACTTTCCTGCTAAGTTGTTGTACTAGAACGCTTATTTTTCCGGAGTCACCTAGTGCAG”: the binding signal was 10000 fluorescence intensity (a.u.).

“ATTTTGGGCCTATTCACTTTGATGTCATTTTTAACCATACCGGAGTCACCTAGTGCAG”: the binding signal is 9660 fluorescence intensity (a.u.).

Regarding “TCGCCCGCTATCTCCCACAACTCCACCTCTCCACATCTTCCGGAGTCACCTAGTGCAG”, the binding signal is 8820 fluorescence intensity (a.u.).

As for “AACCCTACAGCGCCTCCACCACCACTCCTTGCCTTTTTTGCGGAGTCACCTAGTGCAG”, the binding signal is 9890 fluorescence intensity (a.u.).

For the sequence “ATGGGAAAAATGTACTCTTGCATGTGTGCCAAATTTGGTTCGGAGTCACCTAGTGCAG”, the binding signal is 8970 fluorescence intensity (a.u.).

On to “CGCCGACACATAATACGTTGGCAGTGCTATATACATATTTCGGAGTCACCTAGTGCAG”, for which the binding signal was 8770 fluorescence intensity (a.u.).

Turning to “TATATATATATATGTGTGTGTGTTCTTAGCGACTTAAAAACGGAGTCACCTAGTGCAG”, the binding signal is 9070 fluorescence intensity (a.u.).

For “TCACCCGAAACCCTAGCCCCATTCGCCGCCGGGGTCGCGGCGGAGTCACCTAGTGCAG”, the binding signal is 8170 fluorescence intensity (a.u.).

With “ACTAGTGGATTGATTCCCGGTCTCTTATTGTCCCTATCATCGGAGTCACCTAGTGCAG”, the binding signal is 10000 fluorescence intensity (a.u.).

Consider “ATACTCTTGGTTTATCTTTGATTTTGTATATCTTTTTATTCGGAGTCACCTAGTGCAG”, for which the binding signal was 9720 fluorescence intensity (a.u.).

Regarding “GACGCCCCTGTGCAGCGCCGCTCTTGTTCGAATCCGGCCGCGGAGTCACCTAGTGCAG”, the binding signal is 8780 fluorescence intensity (a.u.).

As to “AACAGGGCCATGTCTAGATTTGTAGTTGTCACATCCGGTTCGGAGTCACCTAGTGCAG”, the binding signal was 8090 fluorescence intensity (a.u.).

As for “CCACCCGTACGTCGCAAGCCCGTTCCATCTCGCACACTATCGGAGTCACCTAGTGCAG”, the binding signal was 9640 fluorescence intensity (a.u.).

Regarding “TGCTTTTATGTCCCCAACGCCCCAACTACTATCGGTTGCACGGAGTCACCTAGTGCAG”, the binding signal was 8030 fluorescence intensity (a.u.).

With “GGTAGGTAGTCCATTGCCCCGTCTGGTATACCTACAAGTTCGGAGTCACCTAGTGCAG”, the binding signal is 8160 fluorescence intensity (a.u.).

Turning to “TCACTCCAACGATCACACCATCTATCCTCTCTACATTGAGCGGAGTCACCTAGTGCAG”, the binding signal was 8230 fluorescence intensity (a.u.).

With “GTACTTGTGGCCGTGCTGTTTGACCCTTGCACAGTTGCAACGGAGTCACCTAGTGCAG”, the binding signal is 11400 fluorescence intensity (a.u.).

Turning to “CGATACTTTCATGGGTGGGTCCTATGTTGCACGGTTGGTTCGGAGTCACCTAGTGCAG”, the binding signal is 22900 fluorescence intensity (a.u.).

For the sequence “GCTGTAGAAATTTCTCCTTCTTTGTTAAATGTATGTCTTTCGGAGTCACCTAGTGCAG”, the binding signal was 9540 fluorescence intensity (a.u.).

As to “CTTTGCTACGTGTATTTTTTGTGGCCATAGCTTCAATGTGCGGAGTCACCTAGTGCAG”, the binding signal is 8600 fluorescence intensity (a.u.).

On to “CGCCGCCATCTCGCCGCCGCCGCCACCTCACCCAACCAATCGGAGTCACCTAGTGCAG”, for which the binding signal is 9680 fluorescence intensity (a.u.).

On to “TATTCTTTGCCTGAAAGCAATATTGTCAGTGGCTTGCTTACGGAGTCACCTAGTGCAG”, for which the binding signal is 8110 fluorescence intensity (a.u.).

As for “ACCTTTCGCGTTCACCTCAGCTCAGCTCGTCTCTCTGACTCGGAGTCACCTAGTGCAG”, the binding signal is 14300 fluorescence intensity (a.u.).

On to “TGTACAAATCCTCCGTTTCTTATTTATGATTGAATTTCATCGGAGTCACCTAGTGCAG”, for which the binding signal was 8080 fluorescence intensity (a.u.).

As to “AAACTTTCCTACGCACATAAACTTCCAACTTTTCCGTCACCGGAGTCACCTAGTGCAG”, the binding signal was 9800 fluorescence intensity (a.u.).

As for “TGCATGTTCCATTTTTATAACAATTTTCAAATACCTTACACGGAGTCACCTAGTGCAG”, the binding signal is 8140 fluorescence intensity (a.u.).
